Experimental findings from PubChem BioAssay AID180 (DTP/NCI, 2004) are described below.

The list does not hold the whole screen: it is rich in T/C values a quarter to a half above the control, in often repeated tests (any T/C) and in doses without a T/C. Further doses and runs are listed elsewhere. T/C gives the treated animals as a percentage of the vehicle group. Schedule codes are those of the source, read here as Q, the interval in days (D) or hours (H), X, the number of doses. Some T/C values carry the count of animals alive at the toxicity check (mostly the fifth day); where none is given, no animal had died by that day. Some entries give survivors of the animals treated and no T/C: the source holds a T/C of zero for them, seemingly a mark for toxic or unscored doses. Survivors were counted at the toxicity check, usually on the fifth day, unless a day is given; later deaths do not show. Some entries hold several experiments; the results are listed from low to high.

The test system of this experiment is BDF1 mice, Adenocarcinoma 755 s.c., tumor weight T/C. The experiment can be described thus: NCI In Vivo Anticancer Drug Screen. Data for tumor model Adenocarcinoma 755 (subcutaneous) in B6D2F1 (BDF1) mice. The note with it: T/C endpoint: mean tumor weight, higher T/C = larger tumour; for T/C: evaluated on day 12. The essentials: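 Transplantable tumor implanted; mice dosed with compound or vehicle; survival or tumor size recorded; ratio of treated to vehicle control reported.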

Where [1] appears, read: dose: 25.0 mg/kg/injection, schedule: Q01DX011 (ip), vehicle: methylcellulose (MC).
Setting [2] is: dose: 300.0 mg/kg/injection, schedule: Q01DX011 (ip), vehicle: carboxymethylcellulose (CMC).
Where [3] appears, read: dose: 120.0 mg/kg/injection, schedule: Q01DX011 (ip), vehicle: carboxymethylcellulose (CMC).
Where [4] appears, read: dose: 240.0 mg/kg/injection, schedule: Q01DX011 (ip), vehicle: carboxymethylcellulose (CMC).
[5] abbreviates: dose: 100.0 mg/kg/injection, schedule: Q01DX011 (ip), vehicle: other.

On to `Cc1nc2nc(N)nc(N)c2nc1C`, for which the T/C (dose: 15.63 mg/kg/injection, schedule: Q01DX011 (ip), vehicle: carboxymethylcellulose (CMC)) was 130 % of control [8 of 10 alive]. For the same compound, the survivor count is 3 of 10 (dose: 50.5 mg/kg/injection, schedule: Q01DX011 (ip), vehicle: carboxymethylcellulose (CMC)); 3 of 10 (dose: 101.0 mg/kg/injection, schedule: Q01DX011 (ip), vehicle: carboxymethylcellulose (CMC)); 5 of 10 (dose: 125.0 mg/kg/injection, schedule: Q01DX011 (ip), vehicle: carboxymethylcellulose (CMC)); 2 of 10 and 4 of 10 (dose: 202.0 mg/kg/injection, schedule: Q01DX011 (ip), vehicle: carboxymethylcellulose (CMC)).
For the compound `CS(=O)(=O)OCCCCCOS(C)(=O)=O`, the survivor count reads like this: under setting [1], 3 of 10; (dose: 37.0 mg/kg/injection, schedule: Q01DX011 (ip), vehicle: carboxymethylcellulose (CMC)) 6 of 10; (dose: 50.0 mg/kg/injection, schedule: Q01DX011 (ip), vehicle: methylcellulose (MC)) 4 of 10; (dose: 150.0 mg/kg/injection, schedule: Q01DX011 (ip), vehicle: carboxymethylcellulose (CMC)) 0 of 10; under setting [2], 0 of 10.
For `CC(=O)N(C1CCCCC1)C1CCCCC1`, for the setting “dose: 25.0 mg/kg/injection, schedule: Q01DX011 (ip), vehicle: other”, the survivor count is given as 1 of 10.
For the compound `C[C@]12C=CC(=O)C=C1CC[C@H]1[C@@H]3C[C@@H](O)[C@](O)(C(=O)CO)[C@@]3(C)C[C@H](O)[C@@]12F`, the survivor count (dose: 50.0 mg/kg/injection, schedule: Q01DX011 (sc), vehicle: steroid suspending solution) is given as 6 of 10 and the survivor count (dose: 100.0 mg/kg/injection, schedule: Q01DX011 (sc), vehicle: steroid suspending solution) is on record as 2 of 10.
As for `CN(C)c1ccc2nc3ccc(=[N+](C)C)cc-3sc2c1`, the survivor count is 6 of 10 (dose: 23.05 mg/kg/injection, schedule: Q01DX011 (ip), vehicle: carboxymethylcellulose (CMC)) and 5 of 10 (dose: 41.9 mg/kg/injection, schedule: Q01DX011 (ip), vehicle: carboxymethylcellulose (CMC)). Besides, the T/C (dose: 42.0 mg/kg/injection, schedule: Q01DX011 (ip), vehicle: carboxymethylcellulose (CMC)) was 133 % of control [9 of 10 alive].
In the case of `O=C1C(Cl)=C(Cl)C(=O)C2=C1C1c3ccccc3C2c2ccccc21`, the survivor count was 6 of 10 under setting [2] and 4 of 10 (dose: 700.0 mg/kg/injection, schedule: Q01DX011 (ip), vehicle: carboxymethylcellulose (CMC)).
On to `O=C(Nc1ccc([N+](=O)[O-])cc1)Nc1ccc([N+](=O)[O-])cc1` (tested in a mixture with another compound), for which the T/C (dose: 87.5 mg/kg/injection, schedule: Q01DX011 (ip), vehicle: methylcellulose (MC)) was 127 % of control. The survivor count by setting is: (dose: 175.0 mg/kg/injection, schedule: Q01DX011 (ip), vehicle: methylcellulose (MC)) 6 of 10; (dose: 500.0 mg/kg/injection, schedule: Q01DX011 (ip), vehicle: methylcellulose (MC)) 5 of 10.
As for `CCOc1nc(N)nc2n[nH]nc12`, the survivor count runs as follows: (dose: 175.0 mg/kg/injection, schedule: Q01DX011 (ip), vehicle: carboxymethylcellulose (CMC)) 3 of 10; (dose: 200.0 mg/kg/injection, schedule: Q01DX011 (ip), vehicle: carboxymethylcellulose (CMC)) 1 of 10.
Consider `O=c1cc2[nH]c(O)cn2c(=O)[nH]1`, for which the survivor count under setting [3] is recorded as 2 of 10 and the survivor count under setting [4] is reported as 0 of 10.
For the compound `CC(=O)OCC1OC(n2cnc3c(=S)nc(N)[nH]c32)C(OC(C)=O)C1OC(C)=O` (stereo not given), the survivor count is, setting by setting: (dose: 30.0 mg/kg/injection, schedule: Q01DX011 (ip), vehicle: carboxymethylcellulose (CMC)) 0 of 10; (dose: 50.0 mg/kg/injection, schedule: Q01DX011 (ip), vehicle: other) 0 of 10; (dose: 60.0 mg/kg/injection, schedule: Q01DX011 (ip), vehicle: carboxymethylcellulose (CMC)) 0 of 10; under setting [5], 0 of 10; under setting [3], 0 of 10.
As to `FC(F)(F)c1nc(Cl)nc2c1ncn2Cc1ccccc1`, the survivor count under setting [4] is reported as 5 of 10.
As for `Cc1nc(C(N)=O)nc2ccccc12`, the survivor count is 3 of 10 (dose: 62.5 mg/kg/injection, schedule: Q01DX011 (ip), vehicle: methylcellulose (MC)); 6 of 10 (dose: 125.0 mg/kg/injection, schedule: Q01DX011 (ip), vehicle: methylcellulose (MC)); 3 of 10 (dose: 250.0 mg/kg/injection, schedule: Q01DX011 (ip), vehicle: methylcellulose (MC)).
Take `O=C(NC(CO)C(=O)O)C(Cl)Cl` (stereo not given): the survivor count (dose: 2000.0 mg/kg/injection, schedule: Q01DX011 (ip), vehicle: methylcellulose (MC)) was 4 of 10 and the survivor count (dose: 3000.0 mg/kg/injection, schedule: Q01DX011 (ip), vehicle: methylcellulose (MC)) is given as 3 of 10.
For `Nc1nc2nc(/N=N/SCCO)[nH]c2c(=O)[nH]1`, where the note is “dose: 100.0 mg/kg/injection, schedule: Q01DX011 (ip), vehicle: methylcellulose (MC)”, the survivor count is on record as 2 of 10.
On to `c1nc(SC2CCCC2)c2[nH]cnc2n1`, for which the survivor count runs as follows: (dose: 340.0 mg/kg/injection, schedule: Q01DX011 (ip), vehicle: carboxymethylcellulose (CMC)) 0 of 10; (dose: 340.0 mg/kg/injection, schedule: Q01DX011 (oral), vehicle: carboxymethylcellulose (CMC)) 0 of 10; (dose: 680.0 mg/kg/injection, schedule: Q01DX011 (oral), vehicle: carboxymethylcellulose (CMC)) 0 of 10.
Regarding `OC1C(O)C(O)C2(CO2)C(O)C1O` (stereo not given), the survivor count (dose: 600.0 mg/kg/injection, schedule: Q01DX011 (ip), vehicle: saline) is reported as 1 of 10.
Turning to `CCCCN(C)N=Nc1ccc(OCC(=O)NN)cc1`, the survivor count reads like this: (dose: 75.0 mg/kg/injection, schedule: Q01DX011 (ip), vehicle: carboxymethylcellulose (CMC)) 3 of 10; (dose: 100.0 mg/kg/injection, schedule: Q01DX011 (ip), vehicle: carboxymethylcellulose (CMC)) 0 of 10.
With `Ic1ncnc2c1ncn2C1CCCS1` (stereo not given), the T/C under setting [1] was 132 % of control.
Regarding `CCCCN(C)N=Nc1ccc(S(N)(=O)=O)cc1`, the T/C (dose: 16.0 mg/kg/injection, schedule: Q01DX011 (ip), vehicle: carboxymethylcellulose (CMC)) was 140 % of control.
For the compound `CCCCCCCCCCCCCCCCCCNC`, under “dose: 7.0 mg/kg/injection, schedule: Q01DX011 (ip), vehicle: carboxymethylcellulose (CMC)”, the T/C is 125 % of control [9 of 10 alive]. Also, the survivor count (dose: 28.0 mg/kg/injection, schedule: Q01DX011 (ip), vehicle: carboxymethylcellulose (CMC)) is recorded as 6 of 10 and the survivor count (dose: 56.0 mg/kg/injection, schedule: Q01DX011 (ip), vehicle: carboxymethylcellulose (CMC)) is given as 5 of 10.
In the case of `O=C(Nc1ccc(C2=NCCN2)cc1)c1cc(Cl)c(C(=O)Nc2ccc(C3=NCCN3)cc2)cc1Cl`, the survivor count (dose: 60.0 mg/kg/injection, schedule: Q01DX011 (ip), vehicle: methylcellulose (MC)) is given as 1 of 10.
Take `Cc1ccc(N=Nc2c(S(=O)(=O)O)cc3cc(NC(=O)Nc4ccc5c(O)c(N=Nc6ccc7cc(S(=O)(=O)O)ccc7c6)c(S(=O)(=O)O)cc5c4)ccc3c2O)c(C)c1`: under “dose: 65.0 mg/kg/injection, schedule: Q01DX011 (ip), vehicle: carboxymethylcellulose (CMC)”, the survivor count is given as 2 of 10.
With `O=C(CCBr)NCNC(=O)CCBr`, the survivor count (dose: 113.0 mg/kg/injection, schedule: Q01DX011 (ip), vehicle: methylcellulose (MC)) is 5 of 10.
Turning to `Cc1n[nH]c(=O)[nH]c1=O`, the T/C was 147 % of control under setting [5] and 134 % of control (dose: 200.0 mg/kg/injection, schedule: Q01DX011 (ip), vehicle: other).
Regarding `CN(C)N=Nc1ccc(-c2ccc(N=NN(C)C)cc2)cc1`, the survivor count (dose: 250.0 mg/kg/injection, schedule: Q01DX011 (ip), vehicle: other) is recorded as 4 of 10.
On to `CCCCn1cnc2c(SSc3ncnc4c3ncn4CCCC)ncnc21`, for which the survivor count (dose: 240.0 mg/kg/injection, schedule: Q01DX011 (ip), vehicle: other) is listed as 0 of 10.
